Some of the results follow.
B1: il2ra_site1_2b5i_sap_11_mot_dbeaafda240321a0cf7c622ad65a8c3f_0001_000000010_0001_15_31_H_._42c349ed7ecc24df8868883d370ad53f_0001_0001_0001000058_0000001_0_0001_ … (protein)
chain: SSSSSDLKELVDALLERARELSKTDPELARRLLILARRIAKKAKDPELVAKVEAVRAELASSSSS
B2: il2ra_site2_3nfp_sap_11_mot_HHH_b2_07186_000000286_0001_42_55_H_._HHH_b1_07704_0001_0000200010_0000001_0_0001 (protein)
chain: SSSSSDTEEEVEELLEEAKRISDPEEVIQLLLEAAAAAAKHRDRELFAAVIAVAQKLIQSSSSSS
B3: il2ra_site2_2erj_sap_23_mot_HHH_b1_03425_000000133_0001_43_59_H_._HHH_b1_04908_0001_0000800014_0000001_0_0001_af2pred_0001_af2pred (protein)
chain: SEEEEEEERLRQLGVPPEVIELFRELLRKAKETGDPELREALLFARYALELGNPETAEAALKRAT
B4: il2ra_site1_2b5i_normal_mot_HHH_b1_01495_af2_000000272_0001_42_56_H_._HHH_b1_05097_af2_0001_0000100004_0000001_0_af2pred_0001_af2pred_1 (protein)
chain: SSSSDEEFQEVLELYLRASRAFLNGDPEKARELLEEALRLAEEINDENAVKDIEHMLELLNSSSS
B5: il2ra_site2_3nfp_sap_20_mot_d42de0cc81f4e0b3186ba921eb477610_0001_000000258_0001_1_14_H_._HHH_b1_00939_0001_0000200012_0000001_0_0001 (protein)
chain: SSSSSEEVEERVRELLEQAEKITDEEEVRKLLAEAARLAFENNDHELFMLVAEVAYRLVKSSSSS
B6: il2ra_site1_3nfp_normal_mot_HHH_b2_03322_af2_000000115_0001_43_57_H_._HHH_b1_01335_af2_0001_0000200002_0000001_0 (protein)
chain: SSSSSSDEAEEYLEELERLLEENDAHRFAQVTKEALRVANRENDEELSKLIERLLKRAASSSSSS
B7: il2ra_site1_1z92_normal_mot_HHH_b2_04375_000000267_0001_42_56_H_._HHH_b2_06256_0001_0000200013_0000001_0_af2pred_0001_af2pred_1_swapped (protein)
chain: SSSSSDEEEAEQVVERLVEEFGLSEEDKEVLERLAKQALERGLSEKSIHRALHFAAERAGSSSSS
B8: il2ra_site2_2erj_normal_mot_HHH_b1_03107_000000098_0001_39_52_H_._HHH_b2_05000_0001_0000600020_0000001_0 (protein)
chain: SSSSSDQEEVWREVAELLARAAHIKDPEEVEELLEEARRLAEEANNEILKRYIKFAEEDHSSSSS
B9: il2ra_site1_2b5i_sap_15_mot_HHH_b1_07936_af2_000000056_0001_1_17_H_._HHH_b1_06486_af2_0001_0000300010_0000001_0_0001_af2pred_dldesign_0_af2pred (protein)
chain: SSSSLEKISDKIHELYEKYNLSSEEYNDLVRKASRMIYEGKSEEEIIKELEAEAEELKKGSSSSS
B10: il2ra_site2_3nfp_normal_mot_HHH_b1_00660_af2_000000090_0001_40_57_H_._HHH_b1_04854_af2_0001_0000100002_0000001_0_af2pred_0001_1_af2pred_swapped (protein)
chain: SSSSSSDEEEEVEKLLERAKHIEDEEEALMLLLLAREIAEELNDEELERLVQEVLRELSSSSSSS
B11: il2ra_site2_2erj_sap_17_mot_HHH_b1_00449_000000059_0001_39_52_H_._HHH_b2_06170_0001_0000100002_0000001_0_0001 (protein)
chain: SSSSDEELHELYELAVRLLHLFARGDREEFEETAREARELAEERQSPTVREVVEWMLRELSSSSS
B12: il2ra_site2_3nfp_normal_mot_HHH_b1_00660_af2_000000090_0001_40_57_H_._HHH_b1_05946_0001_0000800022_0000001_1_af2pred_0001_af2pred (protein)
chain: SSSSSDLAEEAEELAEEARHVEDPEERRKILARASELAYEANDFEVFALIVLVFNQLERSSSSSS
B13: il2ra_site2_2erj_normal_mot_HHH_b2_00058_000000252_0001_23_39_H_._HHH_b2_01208_0001_0000400015_0000001_1_af2pred_0001_af2pred (protein)
chain: SSSSSDEEQEVEMILLFAEFAYEQGNPENAKLAAERALELAEEINNPELAREIEETLQRLLSSSS
B14: il2ra_site1_3nfp_normal_mot_HHH_b2_04095_af2_000000004_0001_43_56_H_._16934e337390fad51c35c10e6cd388ee_0001_1_0001_0000100012_0000001_0 (protein)
chain: PERLLKKFLEQAKKAPDPEVQEIVEEVEEVLKRDPEKALELLLELLREYGDPVAARFVEDLLRLA
B15: il2ra_site1_1z92_normal_mot_HHH_b1_03515_000000289_0001_1_19_H_._HHH_b1_04183_af2_0001_0000300032_0000001_0 (protein)
chain: SSSSSDERRAAKVIVKVLVRANGLSEEQEEELQELAEELVKRGLDPLEIIKLLDRLAAELSSSSS
B16: il2ra_site1_3nfp_sap_21_mot_HHH_b1_02637_af2_000000013_0001_1_18_H_._HHH_b1_06468_0001_0000100003_0000001_0_0001_af2pred_0001_af2pred_1_swapped (protein)
chain: SSSSTEELTRFVAELAREFNLDHKVLHELLRLVAKLLAEGLSEEEIKKILKELAEELERELSSSS
B17: il2ra_site1_1z92_sap_16_mot_HHH_b1_01467_000000208_0001_22_39_H_._HHH_b2_07023_0001_0000100002_0000001_0_0001_af2pred_0001_af2pred (protein)
chain: SSSSSDLEEIAEELVEELVEEFNLSEEEERALRKAAEDAVKAGFSPKSVEYALRAAVKYLSSSSS
B18: il2ra_site1_1z92_normal_mot_be5bd3f495b2ba9d9abb66d04d14a4bf_0001_000000146_0001_37_51_H_._104f9518c2e4434ea70fdb64017d7000_0001_af2_0001_0000100001_0000001_0_a … (protein)
chain: GPEEVIEIIAEAAGLPPEAVERDVKRTAELLNIPPEEALRAALLVVRKEDPRFEEEVEEAERLLK
B19: il2ra_site2_2erj_normal_mot_c2bf78bdce995293a161f7082e24b401_0001_af2_000000082_0001_17_32_H_._HHH_b2_04590_af2_0001_0000300025_0000001_0 (protein)
chain: SSSSNEELRRLYELANQILRLLYEGDEEEARELLRELEELAEKTQSDAVKEIVERLKQELSSSSS

Target: il2ra, P01589
Test: yeast display titration

Apparent Kd, inactive:
B1 no binding seen
B2 no binding seen
B3 no binding seen
B4 no binding seen
B5 no binding seen
B6 no binding seen
B7 no binding seen
B8 no binding seen
B9 no binding seen
B10 no binding seen
B11 no binding seen
B12 no binding seen
B13 no binding seen
B14 no binding seen
B15 no binding seen
B16 no binding seen
B17 no binding seen
B18 no binding seen
B19 no binding seen

Six consecutive entries out of the list so far, quoted:
Apparent Kd, inactive:
B2 no binding seen
B3 no binding seen
B4 no binding seen
B5 no binding seen
B6 no binding seen
B7 no binding seen
